Data: publication PMC11900803
These are yes or no findings as the source states them, for the method shown. Binding seen in cells or lysates may run through a third protein. Some results given as binding are weak or reduced against the parent protein; the word gives no strength.

Amino acid sequences for entries named in this document (tags omitted). Residues count along the entry.
UniProt P07996, residues 19-1170: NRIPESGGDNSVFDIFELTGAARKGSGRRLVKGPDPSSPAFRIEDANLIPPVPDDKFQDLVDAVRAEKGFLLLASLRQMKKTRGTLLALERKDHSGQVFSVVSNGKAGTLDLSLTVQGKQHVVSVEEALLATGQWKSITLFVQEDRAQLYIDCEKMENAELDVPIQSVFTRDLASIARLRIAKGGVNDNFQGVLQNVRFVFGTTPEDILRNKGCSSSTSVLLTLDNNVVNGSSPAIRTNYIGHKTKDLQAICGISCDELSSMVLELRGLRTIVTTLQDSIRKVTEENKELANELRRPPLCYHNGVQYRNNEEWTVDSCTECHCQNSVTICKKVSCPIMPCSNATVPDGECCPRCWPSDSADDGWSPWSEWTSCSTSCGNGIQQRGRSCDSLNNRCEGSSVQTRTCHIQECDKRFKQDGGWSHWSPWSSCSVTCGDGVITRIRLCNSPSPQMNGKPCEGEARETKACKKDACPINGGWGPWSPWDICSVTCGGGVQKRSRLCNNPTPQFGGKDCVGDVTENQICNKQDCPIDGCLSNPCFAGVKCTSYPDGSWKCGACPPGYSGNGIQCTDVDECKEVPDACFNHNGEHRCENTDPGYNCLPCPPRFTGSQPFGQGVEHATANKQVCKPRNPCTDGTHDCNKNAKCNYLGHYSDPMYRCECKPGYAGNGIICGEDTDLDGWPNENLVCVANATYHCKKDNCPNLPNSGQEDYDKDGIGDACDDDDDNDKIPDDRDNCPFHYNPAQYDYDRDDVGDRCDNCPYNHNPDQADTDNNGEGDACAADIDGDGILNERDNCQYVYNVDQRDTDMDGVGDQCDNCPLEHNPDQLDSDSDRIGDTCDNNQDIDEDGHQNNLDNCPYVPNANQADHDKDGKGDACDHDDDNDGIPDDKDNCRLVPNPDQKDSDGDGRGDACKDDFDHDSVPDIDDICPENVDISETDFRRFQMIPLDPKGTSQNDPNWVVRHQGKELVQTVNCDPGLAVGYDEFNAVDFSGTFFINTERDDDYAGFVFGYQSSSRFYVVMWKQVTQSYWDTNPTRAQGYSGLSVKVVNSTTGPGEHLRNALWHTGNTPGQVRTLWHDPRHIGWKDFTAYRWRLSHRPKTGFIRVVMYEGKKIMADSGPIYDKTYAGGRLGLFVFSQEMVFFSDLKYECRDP
UniProt P56199, residues 29-1179: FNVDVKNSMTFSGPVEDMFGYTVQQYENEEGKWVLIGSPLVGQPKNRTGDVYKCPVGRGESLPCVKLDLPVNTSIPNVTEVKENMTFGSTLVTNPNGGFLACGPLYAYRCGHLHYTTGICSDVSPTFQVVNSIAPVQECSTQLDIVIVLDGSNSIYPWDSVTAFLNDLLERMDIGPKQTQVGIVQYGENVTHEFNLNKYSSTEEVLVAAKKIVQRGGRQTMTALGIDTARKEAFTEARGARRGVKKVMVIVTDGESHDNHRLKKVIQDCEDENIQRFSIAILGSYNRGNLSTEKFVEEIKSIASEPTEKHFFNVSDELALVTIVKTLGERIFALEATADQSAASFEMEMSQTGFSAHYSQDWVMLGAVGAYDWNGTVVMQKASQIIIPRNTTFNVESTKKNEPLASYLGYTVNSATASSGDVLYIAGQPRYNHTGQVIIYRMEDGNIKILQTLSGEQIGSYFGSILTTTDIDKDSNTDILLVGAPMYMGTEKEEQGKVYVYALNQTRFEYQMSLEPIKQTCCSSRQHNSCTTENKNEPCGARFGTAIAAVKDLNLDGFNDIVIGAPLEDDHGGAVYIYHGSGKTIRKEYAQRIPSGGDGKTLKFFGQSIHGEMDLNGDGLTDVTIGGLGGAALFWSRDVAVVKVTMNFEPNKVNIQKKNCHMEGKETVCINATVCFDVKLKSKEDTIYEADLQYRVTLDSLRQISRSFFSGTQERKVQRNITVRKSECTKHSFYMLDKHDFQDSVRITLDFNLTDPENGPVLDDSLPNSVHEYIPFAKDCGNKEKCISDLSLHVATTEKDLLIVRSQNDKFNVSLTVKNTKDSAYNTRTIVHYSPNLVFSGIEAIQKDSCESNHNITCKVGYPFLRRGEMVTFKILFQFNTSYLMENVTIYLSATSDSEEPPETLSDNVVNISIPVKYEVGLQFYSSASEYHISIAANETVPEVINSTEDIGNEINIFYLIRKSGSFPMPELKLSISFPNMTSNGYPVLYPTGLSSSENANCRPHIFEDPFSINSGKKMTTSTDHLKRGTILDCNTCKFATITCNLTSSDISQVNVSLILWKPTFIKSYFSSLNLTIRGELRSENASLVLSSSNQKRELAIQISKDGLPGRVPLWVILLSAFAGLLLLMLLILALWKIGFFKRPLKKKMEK

Molecular target: Thrombospondin 1 (human (endogenous in osteosarcoma cells)) (UniProt P07996)
Test: co-IP; Immunoprecipitation Kit with Protein A+G Agarose Gel (Beyotime); immunoprecipitates analysed by Western blotting; osteosarcoma cells in dedifferentiation; precipitating antibody and cell line not stated

Question: With “Integrin subunit alpha 1 (from UniProt P56199 29-1179) (receptor)” as the substance, how does the binding read?
Answer: binds
